The results in this text go back to paper PMC7819943, “Rice protein-binding microarrays: a tool to detect cis-acting elements near promoter regions in rice”.

Sequences of proteins named here, by UniProt entry; tags and fusion partners are left off.
UniProt Q0JBA9, entry or part of it: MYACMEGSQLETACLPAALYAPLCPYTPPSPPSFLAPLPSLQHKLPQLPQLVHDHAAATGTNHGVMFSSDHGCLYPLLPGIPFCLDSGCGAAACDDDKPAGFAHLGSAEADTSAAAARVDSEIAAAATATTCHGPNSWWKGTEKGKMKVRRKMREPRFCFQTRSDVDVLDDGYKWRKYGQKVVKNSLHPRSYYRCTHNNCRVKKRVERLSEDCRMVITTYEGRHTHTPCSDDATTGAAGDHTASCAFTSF

This is one part of the list.

The target of this assay is OsWRKY34 (Oryza sativa, UniProt Q0JBA9 1-250). The experiment in a line: protein-binding microarray (RPBM); PBS, 2% BSA, 51.3 ng/ul salmon testes DNA, 50 uM zinc acetate, 200 nM TF, 25 C, 1 h; high values mean tight binding. Particulars: protein: recombinant; tags: N-terminal polyhistidine and DsRed monomer fusion (pET32a); label: CyDye5-dUTP incorporated in the synthesized complementary strand; 3' TTTTT single-stranded linker to array surface; dsDNA, one strand shown. In outline:
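Binding signal is reported as fluorescence intensity per feature (arbitrary units) from an Axon 4000B scanner. Incubation used 200 nM of each Ni–NTA-purified, N-terminally polyhistidine- and DsRed-fused transcription factor from E. coli BL21-CodonPlus on a double-stranded custom Agilent array for 1 h at 25 °C, with 50 µM zinc acetate in the buffer, followed by washing.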
Take “CTGCTACATGTGGCCGGTCGGTTGCAATGGTTGTAATTATCGGAGTCACCTAGTGCAG”: the binding signal is 8230 fluorescence intensity (a.u.).

In the case of “CAGACGTTCACCATCTTCCGCGTCCCCGCCTTTCTTCGCGCGGAGTCACCTAGTGCAG”, the binding signal is 9290 fluorescence intensity (a.u.).

In the case of “TTAGTGGGGTTATTTAGCTTTTTTTTTAAGAAGTCTGCTTCGGAGTCACCTAGTGCAG”, the binding signal is 9750 fluorescence intensity (a.u.).

Take “CTCTCTAACTGCAGATTTCCCTCCCCTTTCAACGCGCGCGCGGAGTCACCTAGTGCAG”: the binding signal is 8110 fluorescence intensity (a.u.).

“CTCCATATATTCGTTACCAGACTGTCACTGTTTCATGTCACGGAGTCACCTAGTGCAG”: the binding signal was 9720 fluorescence intensity (a.u.).

For “TCATCGCGGGGCGGGGTGTAGCGGGTGCGAAAAGGAGGCGCGGAGTCACCTAGTGCAG”, the binding signal was 9910 fluorescence intensity (a.u.).

In the case of “AAAATGCCCTTGTTACTTATTTGTGAACTTTGTTAAATACCGGAGTCACCTAGTGCAG”, the binding signal was 9430 fluorescence intensity (a.u.).

For the sequence “AGTTATCATGTTTCTGTTGTTATCTCTTTATCCTTATCTCCGGAGTCACCTAGTGCAG”, the binding signal was 12500 fluorescence intensity (a.u.).

Regarding “CTTCGCAGCCGCCGCCGGCGGGGAGGGGAGGGCTCCGCGGCGGAGTCACCTAGTGCAG”, the binding signal was 8600 fluorescence intensity (a.u.).

Take “GTTTGGCTGTTTATTTCTTAGTATTAAACTCTGGACATATCGGAGTCACCTAGTGCAG”: the binding signal is 8910 fluorescence intensity (a.u.).

On to “CCTGTTTTAGCTAGCCTTTGTCATATACCAAAACCACACCCGGAGTCACCTAGTGCAG”, for which the binding signal is 8150 fluorescence intensity (a.u.).

Turning to “CATGTTGCGCATATTTGATCTGCTCATGTTTTACTGCTTACGGAGTCACCTAGTGCAG”, the binding signal was 8210 fluorescence intensity (a.u.).

For “GCCAATGCCTCGCTTCGTCGCCTGCGGCTTCTGCGACCTCCGGAGTCACCTAGTGCAG”, the binding signal was 9630 fluorescence intensity (a.u.).

On to “ATACTTCAAATATGTATCCGTATATCCGATGTGACACGCCCGGAGTCACCTAGTGCAG”, for which the binding signal was 8450 fluorescence intensity (a.u.).

Turning to “AAATCATCCTTGGGCCCACTTAATATGCCATATGCCTATTCGGAGTCACCTAGTGCAG”, the binding signal was 10100 fluorescence intensity (a.u.).

With “TCTCTGCTTTCCGTCGCTTAACACAGTTAACACCAACGCACGGAGTCACCTAGTGCAG”, the binding signal is 12700 fluorescence intensity (a.u.).

Regarding “TCTACCTTTTTTCGCTTTGAGTGTTTCTACTCTGCTGCTACGGAGTCACCTAGTGCAG”, the binding signal was 11600 fluorescence intensity (a.u.).

“ACCATCAAGTTCTGCTTTTCTTCCCCATGTTTTTTTGCCCCGGAGTCACCTAGTGCAG”: the binding signal is 10700 fluorescence intensity (a.u.).

On to “AAGCTAGACCACGTAACTTCACCTATTGCAACACATATATCGGAGTCACCTAGTGCAG”, for which the binding signal is 9970 fluorescence intensity (a.u.).

As for “CGATCGCAATTTATACTTCATGGTCAAATATCTGTTACGTCGGAGTCACCTAGTGCAG”, the binding signal was 8280 fluorescence intensity (a.u.).

In the case of “TCCGTTTGTTCGTATTATAACTTTGTGTTTGTTATTGGGGCGGAGTCACCTAGTGCAG”, the binding signal is 11400 fluorescence intensity (a.u.).

In the case of “AAACACCACTAGTCCATACTTAAATTTAATGTTGCTTATCCGGAGTCACCTAGTGCAG”, the binding signal is 10100 fluorescence intensity (a.u.).

For “GCTTCCAGTCCAGCCCGCTCGCCGTCTCGCCATTTTGACCCGGAGTCACCTAGTGCAG”, the binding signal is 10700 fluorescence intensity (a.u.).

Take “ACCGACTTTAATCACCAGCCCATCGTTAGCTAGCCAAAATCGGAGTCACCTAGTGCAG”: the binding signal is 10100 fluorescence intensity (a.u.).

Regarding “AGATGTTTCCGCTGATACTTTGATACGTCGTCCTTATTTGCGGAGTCACCTAGTGCAG”, the binding signal is 10800 fluorescence intensity (a.u.).

With “TTAACCCTTTATTCCTTTTTTCTTTTTACATACCCCTCGGCGGAGTCACCTAGTGCAG”, the binding signal was 8250 fluorescence intensity (a.u.).

In the case of “GACCGGCAACTTTCTTGTTCTACGTGAGCACATTTCCCGACGGAGTCACCTAGTGCAG”, the binding signal is 9000 fluorescence intensity (a.u.).

Consider “GATTTCTTATCCTTCTTCTTGTTGCTAATCTCGATCGATCCGGAGTCACCTAGTGCAG”, for which the binding signal is 12700 fluorescence intensity (a.u.).

On to “TCTCATTGGCCGGAACAAGTCACGCCACGCCCGTTTCCTCCGGAGTCACCTAGTGCAG”, for which the binding signal is 8150 fluorescence intensity (a.u.).

In the case of “TTAATATGTAGCTTATGTTTTGTGGGTAGTATAGGTATATCGGAGTCACCTAGTGCAG”, the binding signal is 9300 fluorescence intensity (a.u.).

With “GCACACGTTGTACTACAACCCTAGCAGTCAGCTCTGCTTTCGGAGTCACCTAGTGCAG”, the binding signal is 8960 fluorescence intensity (a.u.).

Turning to “CGCTACTCATACGATCCCGCTTGTCTCTCGGCTTCAACCTCGGAGTCACCTAGTGCAG”, the binding signal was 11200 fluorescence intensity (a.u.).

As for “ATTCAAGGAGTTGTTCAAAGCTACCAATGGCTTTGTTGACCGGAGTCACCTAGTGCAG”, the binding signal is 8080 fluorescence intensity (a.u.).

Regarding “AATTAGTTTTGATGATCCACTGATGAATCAGTTTCTTATTCGGAGTCACCTAGTGCAG”, the binding signal is 8430 fluorescence intensity (a.u.).

For “TTGGTTCTTGCTTGTGTGAGAGGATTCGTTGTTCTTATAACGGAGTCACCTAGTGCAG”, the binding signal was 8610 fluorescence intensity (a.u.).

On to “ATCATGTGGGATGGATCCTATTACTCAGCTATATGTTGTCCGGAGTCACCTAGTGCAG”, for which the binding signal is 8350 fluorescence intensity (a.u.).

For the sequence “AAGCATCATCACTGTCGCTGTCATCAATCATTGTCACTTACGGAGTCACCTAGTGCAG”, the binding signal is 9590 fluorescence intensity (a.u.).

Take “CACGTTCAACGTTTGACCACTCGTCTTATTTAAAATTTTTCGGAGTCACCTAGTGCAG”: the binding signal is 9360 fluorescence intensity (a.u.).

Take “TTAGCTGCAGTACTTTTGCACAAACGCCTCATCTACTGTGCGGAGTCACCTAGTGCAG”: the binding signal was 8780 fluorescence intensity (a.u.).

With “AATCATCATGGTCATTATCACTTAAGCTCAAAACTTAATTCGGAGTCACCTAGTGCAG”, the binding signal is 8400 fluorescence intensity (a.u.).

In the case of “TCCCATTTTGCCCCTACGCTCGCCCACCTATCTTACCACTCGGAGTCACCTAGTGCAG”, the binding signal was 12600 fluorescence intensity (a.u.).

With “ACACACCACCGCGACACATCGCACGCATCATTCTGAATTTCGGAGTCACCTAGTGCAG”, the binding signal was 8820 fluorescence intensity (a.u.).

For “GCTCCTTTCCAGATTGTCCAGCATGCCACTGCCCCAGATACGGAGTCACCTAGTGCAG”, the binding signal was 9380 fluorescence intensity (a.u.).

“CTTTCTGTTAGGCCCCACCTGTCGGTGAGACAGCGCGGAGCGGAGTCACCTAGTGCAG”: the binding signal is 8940 fluorescence intensity (a.u.).

As to “TGCTCTATAAATACCAGCTTCCTCTTGCCTCTCAACCCATCGGAGTCACCTAGTGCAG”, the binding signal is 8530 fluorescence intensity (a.u.).

Regarding “CTTCCGTGTTTGGTTTCCGATGTGATTTCGGGGCCGGTTTCGGAGTCACCTAGTGCAG”, the binding signal is 10900 fluorescence intensity (a.u.).

“TAATCTTTGTTTGGCCCTTGTTAAAGGAGATGTTAATTCTCGGAGTCACCTAGTGCAG”: the binding signal was 8180 fluorescence intensity (a.u.).

For “ATTCTTTGCTTTTATCCCCTTGTGCTGTTCTCTCCTTGATCGGAGTCACCTAGTGCAG”, the binding signal is 11700 fluorescence intensity (a.u.).

Regarding “ATGCTTCTTCATGAGCTTGTCATTGCCATCTTACATTTCTCGGAGTCACCTAGTGCAG”, the binding signal was 9750 fluorescence intensity (a.u.).

Regarding “ACACTGGATGTCTCGTTATCGATTTCTCGATCTCTCCACGCGGAGTCACCTAGTGCAG”, the binding signal is 10400 fluorescence intensity (a.u.).

As for “AGCTTTTCCCCGCCGACCGACACCCTTCTTCTCACCCATTCGGAGTCACCTAGTGCAG”, the binding signal was 8950 fluorescence intensity (a.u.).

For “GGCTACCGTCGCGCCGCCACCGCGCCACTGCGTCGTCACCCGGAGTCACCTAGTGCAG”, the binding signal was 8620 fluorescence intensity (a.u.).

Regarding “TCTCCGAGCGCTTATTTATTACTAACTTGACCAATCAAGCCGGAGTCACCTAGTGCAG”, the binding signal is 8770 fluorescence intensity (a.u.).

Turning to “ATATAAGCGATTTTGAGTTTTTGTTTGCGCTATTTGACCACGGAGTCACCTAGTGCAG”, the binding signal was 10000 fluorescence intensity (a.u.).
